Measured values published in publication PMC12046049.
No constants are given. Whether binding was seen depends on the method and setting.

Target: HSPB7ACD (α-crystallin domain, residues 78-162 of isoform 2) (human) (UniProt Q9UBY9)
Test: native MS; ACD incubated with C-terminal peptide, peptide titration; 200 mM ammonium acetate pH 6.9; acetonitrile added to the source housing; fit with a Hill slope model for 1:1 binding; both purified

binding: no binding
Binder: TFRTEIKI [HSPB7 C-terminal peptide (residues 168-175, TFRTEIKI)]
